{"source": "paper PMC12011184", "about": "(Acta Naturae, 2025)", "key": {"[1]": {"assay": "Fmoc solid-phase peptide synthesis", "details": "whole synthesis, 220 nm"}, "peptide synthesis": {"assay": "peptide synthesis", "details": "whole synthesis, 220 nm"}}, "note": "Some peptides are written in HELM: one residue between dots, names in brackets for other building blocks, links after the first $."}
{"substance": "PEPTIDE1{G.W.T.L.N.S.A.G.Y.L.L.G.P.H.A.I.D.N.H.R.S.F.S.D.K.H.G.L.T.[am]}$$$$V2.0", "values": [{"measurement": "final HPLC purity", "setting": "[1]", "value": 98, "unit": "%"}, {"measurement": "final HPLC purity", "setting": "peptide synthesis", "value": 98.10, "unit": "%"}]}
